# At least one read-out could not be matched to a standard name with certainty.
# Test system: α-synuclein cytotoxicity in M17-SYNwt cells
# Test: α-synuclein cytotoxicity assay: LDH leakage from paraquat-treated M17-SYNwt neuroblastoma cells;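 note: paraquat at 32 mM co-added with compound, 40 h exposure, LDH activity released into the culture medium measured, references are DMSO-only cells and paraquat plus DMSO cells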
# Settings: synuclein toxicity inhibition in paraquat-treated M17-SYNwt cells, LDH release at most effective vs non-effective concentration of test compound, relative to untreated paraquat cells
compound,measurement,value
"CC(C)(C)c1ccc(S(=O)(=O)N2CCN(c3nc(Cc4ccc(F)cc4)ns3)CC2)cc1 [compound 61, 1-[4-ter-butylphenylsulfonyl]-4-[3-(4-fluorobenzyl)-1,2,4-thiadiazol-5-yl]piperazine]",% Inhib.,47%

# — patent US7960556B2, “Thiadiazole derivatives for the treatment of neuro-degenerative diseases” (NV reMYND, priority 2006, dated 2011)
